Results from the supplement of paper PMC10849652.
The other results are listed elsewhere or left out.

Sequences of proteins named here, by UniProt entry; tags and fusion partners are left off. A change or cut given only in a name is not applied to a line headed by its entry.
UniProt Q8TBX8: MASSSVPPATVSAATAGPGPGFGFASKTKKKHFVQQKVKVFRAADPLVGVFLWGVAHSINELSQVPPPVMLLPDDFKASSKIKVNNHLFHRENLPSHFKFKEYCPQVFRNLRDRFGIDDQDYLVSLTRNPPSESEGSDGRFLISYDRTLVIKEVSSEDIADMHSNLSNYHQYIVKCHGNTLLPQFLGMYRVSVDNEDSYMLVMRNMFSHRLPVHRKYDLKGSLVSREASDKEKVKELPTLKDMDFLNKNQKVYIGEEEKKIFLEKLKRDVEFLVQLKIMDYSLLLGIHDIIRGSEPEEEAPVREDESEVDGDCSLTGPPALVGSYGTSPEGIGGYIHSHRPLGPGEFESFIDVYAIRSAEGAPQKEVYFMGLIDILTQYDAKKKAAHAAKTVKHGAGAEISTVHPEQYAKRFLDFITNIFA
UniProt O43175: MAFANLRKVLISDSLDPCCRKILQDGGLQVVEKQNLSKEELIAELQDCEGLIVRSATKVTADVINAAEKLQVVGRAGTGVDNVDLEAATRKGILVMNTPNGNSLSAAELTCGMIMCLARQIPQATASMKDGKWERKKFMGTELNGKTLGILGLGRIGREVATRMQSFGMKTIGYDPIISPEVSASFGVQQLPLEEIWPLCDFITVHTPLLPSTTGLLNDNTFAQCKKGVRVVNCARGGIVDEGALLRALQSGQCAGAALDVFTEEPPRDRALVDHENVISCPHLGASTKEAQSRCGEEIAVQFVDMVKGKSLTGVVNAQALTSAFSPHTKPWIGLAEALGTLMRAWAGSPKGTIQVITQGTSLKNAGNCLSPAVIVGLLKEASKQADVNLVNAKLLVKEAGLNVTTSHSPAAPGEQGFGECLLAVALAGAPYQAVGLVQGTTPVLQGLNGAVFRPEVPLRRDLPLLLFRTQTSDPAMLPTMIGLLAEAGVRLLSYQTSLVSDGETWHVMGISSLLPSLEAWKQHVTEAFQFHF
UniProt Q9Y2I7: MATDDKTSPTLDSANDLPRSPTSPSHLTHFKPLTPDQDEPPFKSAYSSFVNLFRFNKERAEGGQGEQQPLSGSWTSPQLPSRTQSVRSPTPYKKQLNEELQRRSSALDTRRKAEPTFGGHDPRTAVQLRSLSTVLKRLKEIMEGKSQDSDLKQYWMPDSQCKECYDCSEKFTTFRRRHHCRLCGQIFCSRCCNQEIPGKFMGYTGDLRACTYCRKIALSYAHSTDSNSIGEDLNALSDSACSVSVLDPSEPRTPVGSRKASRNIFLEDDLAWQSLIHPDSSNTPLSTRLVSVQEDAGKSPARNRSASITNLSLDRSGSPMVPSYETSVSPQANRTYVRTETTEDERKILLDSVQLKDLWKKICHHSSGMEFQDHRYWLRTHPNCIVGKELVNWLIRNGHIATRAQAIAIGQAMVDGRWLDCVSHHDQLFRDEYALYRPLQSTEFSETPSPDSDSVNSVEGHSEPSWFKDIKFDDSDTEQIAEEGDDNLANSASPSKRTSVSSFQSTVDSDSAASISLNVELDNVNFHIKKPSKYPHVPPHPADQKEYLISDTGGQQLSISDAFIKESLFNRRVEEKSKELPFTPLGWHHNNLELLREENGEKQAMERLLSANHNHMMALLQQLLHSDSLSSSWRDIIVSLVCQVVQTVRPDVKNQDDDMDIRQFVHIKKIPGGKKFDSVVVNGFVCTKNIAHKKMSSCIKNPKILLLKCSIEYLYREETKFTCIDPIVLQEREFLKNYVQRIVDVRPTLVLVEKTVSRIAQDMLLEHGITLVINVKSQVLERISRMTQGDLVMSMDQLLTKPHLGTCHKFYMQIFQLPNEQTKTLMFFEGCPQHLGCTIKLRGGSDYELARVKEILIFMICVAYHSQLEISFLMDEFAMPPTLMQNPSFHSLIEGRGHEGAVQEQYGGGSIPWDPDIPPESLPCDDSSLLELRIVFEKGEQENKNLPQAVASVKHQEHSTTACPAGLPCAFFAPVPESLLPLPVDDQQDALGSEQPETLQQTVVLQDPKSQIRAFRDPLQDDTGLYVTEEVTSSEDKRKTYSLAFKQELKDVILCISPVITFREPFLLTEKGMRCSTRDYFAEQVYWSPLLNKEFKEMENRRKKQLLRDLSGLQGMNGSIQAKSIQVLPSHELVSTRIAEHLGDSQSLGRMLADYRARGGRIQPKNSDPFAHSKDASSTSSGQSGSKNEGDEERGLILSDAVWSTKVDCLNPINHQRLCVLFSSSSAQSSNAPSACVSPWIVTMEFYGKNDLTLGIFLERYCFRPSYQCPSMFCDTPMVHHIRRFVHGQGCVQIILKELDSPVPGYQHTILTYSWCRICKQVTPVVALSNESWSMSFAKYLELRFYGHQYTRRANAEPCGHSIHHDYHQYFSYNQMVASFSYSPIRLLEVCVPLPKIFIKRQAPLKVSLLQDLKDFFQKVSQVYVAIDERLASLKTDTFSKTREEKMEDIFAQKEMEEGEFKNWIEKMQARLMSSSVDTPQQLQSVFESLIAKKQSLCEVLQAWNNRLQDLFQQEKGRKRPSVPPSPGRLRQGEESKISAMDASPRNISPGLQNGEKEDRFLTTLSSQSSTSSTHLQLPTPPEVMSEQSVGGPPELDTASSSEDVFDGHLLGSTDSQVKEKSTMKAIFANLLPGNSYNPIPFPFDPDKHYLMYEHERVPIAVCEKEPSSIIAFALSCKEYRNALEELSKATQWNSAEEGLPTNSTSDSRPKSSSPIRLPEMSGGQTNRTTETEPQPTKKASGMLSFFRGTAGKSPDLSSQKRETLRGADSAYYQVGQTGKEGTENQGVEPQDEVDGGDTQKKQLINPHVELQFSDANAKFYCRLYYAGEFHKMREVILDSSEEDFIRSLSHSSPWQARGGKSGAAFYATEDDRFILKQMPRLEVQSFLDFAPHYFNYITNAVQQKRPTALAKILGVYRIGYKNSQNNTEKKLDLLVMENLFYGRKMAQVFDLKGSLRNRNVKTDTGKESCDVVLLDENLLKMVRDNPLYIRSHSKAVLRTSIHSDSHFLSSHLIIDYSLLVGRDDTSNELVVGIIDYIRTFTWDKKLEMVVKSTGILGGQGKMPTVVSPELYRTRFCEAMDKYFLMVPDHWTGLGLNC
UniProt Q9UG56: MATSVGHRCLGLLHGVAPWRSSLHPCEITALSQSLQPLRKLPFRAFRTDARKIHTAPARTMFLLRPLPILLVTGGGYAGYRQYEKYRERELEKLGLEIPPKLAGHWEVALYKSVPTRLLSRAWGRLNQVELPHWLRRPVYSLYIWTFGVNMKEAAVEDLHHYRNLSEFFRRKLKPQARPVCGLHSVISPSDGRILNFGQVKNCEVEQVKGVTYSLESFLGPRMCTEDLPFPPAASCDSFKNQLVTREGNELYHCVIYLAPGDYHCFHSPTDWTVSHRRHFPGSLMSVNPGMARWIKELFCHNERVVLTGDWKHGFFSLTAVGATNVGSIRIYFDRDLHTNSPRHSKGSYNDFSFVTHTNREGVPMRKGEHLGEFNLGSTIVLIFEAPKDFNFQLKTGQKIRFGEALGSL
UniProt Q969N2: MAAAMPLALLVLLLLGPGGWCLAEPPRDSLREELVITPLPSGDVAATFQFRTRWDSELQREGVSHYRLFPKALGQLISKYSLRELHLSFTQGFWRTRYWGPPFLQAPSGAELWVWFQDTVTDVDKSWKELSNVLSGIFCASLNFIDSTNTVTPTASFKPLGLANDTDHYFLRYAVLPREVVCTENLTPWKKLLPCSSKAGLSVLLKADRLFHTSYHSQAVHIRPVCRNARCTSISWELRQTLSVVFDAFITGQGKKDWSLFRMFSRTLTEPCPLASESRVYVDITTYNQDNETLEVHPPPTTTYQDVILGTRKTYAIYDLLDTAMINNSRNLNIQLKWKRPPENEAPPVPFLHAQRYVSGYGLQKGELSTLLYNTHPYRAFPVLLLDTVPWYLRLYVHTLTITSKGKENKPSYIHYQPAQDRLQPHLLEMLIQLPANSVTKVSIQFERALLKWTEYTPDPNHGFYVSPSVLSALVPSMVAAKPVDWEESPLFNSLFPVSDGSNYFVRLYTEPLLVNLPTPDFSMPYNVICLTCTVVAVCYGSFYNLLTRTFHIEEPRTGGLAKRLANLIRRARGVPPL
UniProt P46020: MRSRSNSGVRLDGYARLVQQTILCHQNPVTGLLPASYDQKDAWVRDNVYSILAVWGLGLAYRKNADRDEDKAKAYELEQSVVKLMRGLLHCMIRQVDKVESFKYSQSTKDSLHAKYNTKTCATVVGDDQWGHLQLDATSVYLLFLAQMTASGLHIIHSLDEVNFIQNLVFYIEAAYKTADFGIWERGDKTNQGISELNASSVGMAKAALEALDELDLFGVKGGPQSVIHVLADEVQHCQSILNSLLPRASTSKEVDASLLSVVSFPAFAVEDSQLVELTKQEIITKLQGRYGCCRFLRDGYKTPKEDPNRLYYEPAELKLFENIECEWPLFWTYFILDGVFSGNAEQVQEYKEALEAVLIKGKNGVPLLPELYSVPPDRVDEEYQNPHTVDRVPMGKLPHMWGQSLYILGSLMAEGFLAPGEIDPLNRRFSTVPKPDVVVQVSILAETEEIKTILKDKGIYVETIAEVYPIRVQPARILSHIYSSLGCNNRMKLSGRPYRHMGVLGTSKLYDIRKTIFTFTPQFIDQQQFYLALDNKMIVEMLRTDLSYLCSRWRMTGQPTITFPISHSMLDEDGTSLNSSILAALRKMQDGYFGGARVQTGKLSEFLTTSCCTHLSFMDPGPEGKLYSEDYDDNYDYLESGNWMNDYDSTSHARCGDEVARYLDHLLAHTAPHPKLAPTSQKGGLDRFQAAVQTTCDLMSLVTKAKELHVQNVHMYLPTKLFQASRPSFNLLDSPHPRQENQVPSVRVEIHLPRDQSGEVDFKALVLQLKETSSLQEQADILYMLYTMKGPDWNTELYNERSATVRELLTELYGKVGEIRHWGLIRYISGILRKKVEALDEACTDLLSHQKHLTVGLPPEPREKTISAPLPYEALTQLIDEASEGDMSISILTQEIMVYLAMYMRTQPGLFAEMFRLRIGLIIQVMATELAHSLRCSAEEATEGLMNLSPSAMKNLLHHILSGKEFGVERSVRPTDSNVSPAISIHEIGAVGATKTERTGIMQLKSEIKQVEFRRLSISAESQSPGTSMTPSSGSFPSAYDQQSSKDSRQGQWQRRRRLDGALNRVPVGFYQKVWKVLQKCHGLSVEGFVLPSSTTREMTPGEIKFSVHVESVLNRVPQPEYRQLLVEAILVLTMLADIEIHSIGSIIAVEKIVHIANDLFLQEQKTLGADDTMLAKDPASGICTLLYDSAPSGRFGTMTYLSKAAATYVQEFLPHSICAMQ
UniProt O15067: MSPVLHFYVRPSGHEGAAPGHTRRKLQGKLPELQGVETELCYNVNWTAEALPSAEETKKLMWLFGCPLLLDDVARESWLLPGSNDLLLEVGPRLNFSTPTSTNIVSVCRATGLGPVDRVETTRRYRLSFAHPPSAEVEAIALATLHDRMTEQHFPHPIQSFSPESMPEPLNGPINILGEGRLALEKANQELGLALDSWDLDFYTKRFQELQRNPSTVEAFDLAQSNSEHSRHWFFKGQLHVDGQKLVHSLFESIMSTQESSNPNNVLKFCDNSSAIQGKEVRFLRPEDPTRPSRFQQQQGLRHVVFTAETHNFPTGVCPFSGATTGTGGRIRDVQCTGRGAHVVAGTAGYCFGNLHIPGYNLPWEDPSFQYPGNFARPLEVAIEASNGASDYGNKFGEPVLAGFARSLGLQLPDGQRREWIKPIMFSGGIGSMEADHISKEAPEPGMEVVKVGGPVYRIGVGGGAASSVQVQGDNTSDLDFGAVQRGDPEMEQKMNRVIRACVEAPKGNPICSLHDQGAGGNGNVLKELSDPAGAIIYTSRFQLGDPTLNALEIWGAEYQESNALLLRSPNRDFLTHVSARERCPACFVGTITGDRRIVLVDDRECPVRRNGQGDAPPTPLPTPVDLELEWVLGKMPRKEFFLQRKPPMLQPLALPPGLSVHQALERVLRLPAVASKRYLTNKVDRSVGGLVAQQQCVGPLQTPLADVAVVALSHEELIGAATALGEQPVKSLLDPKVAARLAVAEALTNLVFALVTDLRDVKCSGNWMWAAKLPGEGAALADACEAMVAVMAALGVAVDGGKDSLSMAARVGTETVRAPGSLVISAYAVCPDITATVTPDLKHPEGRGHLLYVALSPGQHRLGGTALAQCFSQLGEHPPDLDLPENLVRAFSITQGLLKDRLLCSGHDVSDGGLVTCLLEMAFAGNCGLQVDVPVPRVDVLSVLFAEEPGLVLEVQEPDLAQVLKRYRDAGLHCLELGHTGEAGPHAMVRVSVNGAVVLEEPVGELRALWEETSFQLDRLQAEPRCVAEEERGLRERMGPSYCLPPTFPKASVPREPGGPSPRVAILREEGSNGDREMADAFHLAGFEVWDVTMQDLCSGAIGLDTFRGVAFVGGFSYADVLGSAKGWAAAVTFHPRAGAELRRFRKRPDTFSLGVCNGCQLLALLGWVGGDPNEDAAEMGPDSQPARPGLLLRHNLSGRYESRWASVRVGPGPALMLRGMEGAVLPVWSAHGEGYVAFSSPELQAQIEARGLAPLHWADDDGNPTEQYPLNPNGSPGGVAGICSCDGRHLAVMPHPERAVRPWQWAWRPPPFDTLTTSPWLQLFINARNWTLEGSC

Assays:
Assay in all cases: log2 fold change, soluble protein after heating vs DMSO (PISA); higher = thermal stabilisation; K562 cells, 10 uM, 30 min; active = over 0.2 and 3.5 SD of the protein, either way, in both replicates (recomputed)
[1] = compound: CS(=O)(=O)c1ccc(-c2cnc(N)c(C(=O)Nc3ccccc3)n2)cc1
Summary of the method: (§1)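 Aliquots of K562 cells (2×10^6 cells/mL) treated with 10 μM compound for 30 min were heated for 3 min over 48°C-58°C. After pooling and extraction in PBS with 0.5% NP-40 at 4°C, soluble protein from a 21,000xg, 90 min spin was quantified by TMTpro 16plex LC-MS/MS with channel sums equalised. Thermal stability is expressed against control samples, from duplicates, as a log2 fold change.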

crizotinib = compound: C[C@@H](Oc1cc(-c2cnn(C3CCNCC3)c2)cnc1N)c1c(Cl)ccc(F)c1Cl [crizotinib]
Summary of the method: as §1

[2] = compound: C[C@@H]1COCCN1C2=NC(=NC(=C2)C3(CC3)S(=O)(=O)C)C4=C5C=CNC5=CC=C4
Summary of the method: as §1

[3] = compound: C[C@H](C1=CC=C(C=C1)C(=O)NC2=C3C=CNC3=NC=C2)N
Summary of the method: as §1

duvelisib = compound: C[C@H](Nc1ncnc2nc[nH]c12)c1cc2cccc(Cl)c2c(=O)n1-c1ccccc1 [duvelisib]
Summary of the method: as §1

gandotinib = compound: Cc1cc(Nc2cc(CN3CCOCC3)c3nc(C)c(Cc4ccc(Cl)cc4F)n3n2)n[nH]1 [gandotinib]
Summary of the method: as §1

[4] = compound: Cc1cc(SCc2sc(-c3ccc(C(F)(F)F)cc3)nc2C)ccc1OCC(=O)O
Summary of the method: as §1

doramapimod = compound: Cc1ccc(-n2nc(C(C)(C)C)cc2NC(=O)Nc2ccc(OCCN3CCOCC3)c3ccccc23)cc1 [doramapimod]
Summary of the method: as §1

ispinesib = compound: Cc1ccc(C(=O)N(CCCN)[C@@H](c2nc3cc(Cl)ccc3c(=O)n2Cc2ccccc2)C(C)C)cc1 [ispinesib]
Summary of the method: as §1

tozasertib = compound: Cc1cc(Nc2cc(N3CCN(C)CC3)nc(Sc3ccc(NC(=O)C4CC4)cc3)n2)n[nH]1 [tozasertib]
Summary of the method: as §1

Measured: log2 fold change

PIK3C3 (UniProt Q8NEB9)
inactive: [1] 0.147 | crizotinib -0.037 | [2] -0.125 | [3] 0.06 | gandotinib 0.164 | [4] -0.008 | doramapimod 0.127 | ispinesib -0.101
active: duvelisib 0.258

PLCH1 (UniProt Q4KWH8)
inactive: [1] 0.045 | crizotinib -0.023 | [2] 0.023 | [3] 0.109 | duvelisib 0.023 | gandotinib -0.22 | tozasertib -0.08 | [4] 0.052 | doramapimod 0.008 | ispinesib -0.138

PHKA2 (UniProt P46019)
inactive: [1] -0.247 | crizotinib -0.076 | [2] 0.051 | [3] -0.108 | gandotinib -0.083 | [4] 0.071 | doramapimod 0.053 | ispinesib -0.013

PIP4K2C (UniProt Q8TBX8)
inactive: crizotinib -0.058 | [2] 0.042 | [3] 0.063 | gandotinib 0.033 | [4] 0.057 | doramapimod -0.044 | ispinesib 0.009
active: [1] 1.06

PHGDH (UniProt O43175)
inactive: [1] 0.004 | crizotinib 0.029 | [2] 0.039 | [3] -0.065 | duvelisib 0.035 | gandotinib -0.024 | tozasertib 0.018 | [4] -0.019 | doramapimod -0.04 | ispinesib 0.047

PITHD1 (UniProt Q9GZP4)
inactive: [1] 0.01 | crizotinib 0.081 | [2] 0.006 | [3] 0.021 | duvelisib 0.021 | gandotinib 0.06 | tozasertib -0.038 | [4] -0.058 | doramapimod -0.068 | ispinesib -0.021

PIKFYVE (UniProt Q9Y2I7)
inactive: [1] -0.016 | crizotinib -0.068 | [2] 0.096 | [3] 0.073 | gandotinib -0.062 | [4] 0.091 | doramapimod 0.023 | ispinesib -0.061

PHF19 isoform 2 (UniProt Q5T6S3)
inactive: [1] -0.117 | crizotinib -0.09 | [2] 0.019 | duvelisib 0.167 | gandotinib 0.09 | tozasertib 0.039 | [4] 0.096 | doramapimod -0.099 | ispinesib -0.031

PISD (UniProt Q9UG56)
inactive: [1] 0 | crizotinib -0.023 | [2] 0.045 | [3] -0.018 | gandotinib -0.004 | [4] 0.036 | doramapimod 0.006 | ispinesib 0.02

PIGT (UniProt Q969N2)
inactive: [1] 0.033 | crizotinib 0.023 | [2] -0.017 | [3] 0.005 | gandotinib -0.029 | [4] 0.047 | doramapimod 0.036 | ispinesib 0

PHKA1 (UniProt P46020)
inactive: [1] -0.036 | crizotinib -0.05 | [2] -0.048 | [3] 0.189 | gandotinib -0.015 | [4] 0.075 | doramapimod 0.037 | ispinesib -0.07

PFAS (UniProt O15067)
inactive: [1] -0.062 | crizotinib 0.124 | [2] 0.014 | [3] 0 | gandotinib -0.152 | [4] 0.081 | doramapimod -0.018 | ispinesib 0.128

PFDN1 (UniProt O60925)
inactive: [1] 0.018 | crizotinib 0.069 | [2] 0.264 | [3] -0.115 | gandotinib 0.029 | [4] 0.081 | doramapimod 0.018 | ispinesib 0.277

PIP4K2A (UniProt P48426)
active: [1] 0.411
inactive: crizotinib -0.032 | [2] 0.027 | [3] 0.013 | gandotinib -0.084 | [4] 0.042 | doramapimod 0.026 | ispinesib -0.052
